{"source": "paper doi:10.1101/2020.03.25.006957", "binders": {"B1": {"name": "MeGBSSI, yeast two-hybrid fusion (enzyme, UniProt Q43784 1-608)", "chain": "MATVIAAHFVSRSSHLSIHALETKANNLSHTGPWTQTITPNGLRSLNTMDKLQMKTQSKAVKKVSATGNGRPAAKIICGHGMNLIFVGAEVGPWSKTGGLGDVLGGLPPAMAARGHRVMTVSPRYDQYKDAWDTSVSVEIKIGDRIETVRFFHSYKRGVDRVFVDHPMFLEKVWGKTGSKIYGPRAGLDYQDNQLRFSLLCLAALEAPRVLNLNSSKNFSGPYGEEVAFIANDWHTALLPCYLKAIYQPMGIYKHAKVAFCIHNIAYQGRFAFSDFPRLNLPDKFKSSFDFIDGYEKPVKGRKINWMKAGILESDRVLTVSPYYAQEVISGVERGVELDNFIRKTGIAGIINGMDVQEWNPVTDKYIDIHYDATTVMDAKPLLKEALQAEVGLPVDRNVPLIGFIGRLEEQKGSDIFVAAISQLVEHNVQIVILGTGKKKFEKQIEHLEVLYPDKARGVAKFNVPLAHMITAGADFMLVPSRFEPCGLIQLHAMRYGTVPIVASTGGLVDTVKEGYTGFQMGALHVECDKIDSADVAAIVKTVARALGTYATAALREMILNCMAQDLSWKGPARMWEKMLLDLEVTGSEPGTEGEEIAPLAKENVPTP"}}, "biological_target": "MeGBSSI, yeast two-hybrid fusion (cassava (Manihot esculenta)) (UniProt Q43784)", "assay": "two-hybrid", "note": "These are yes or no findings as the source states them, for the method shown. Some results given as binding are weak or reduced against the parent protein; the word gives no strength. Where a sequence is shown, tags or fusion partners need not be part of it."}
{"binder": "B1", "values": [{"measurement": "binding", "result": "binds"}]}
